Laboratory results taken from doi:10.1101/2023.06.23.545108.
No constants are given. Whether binding was seen depends on the method and setting. Binding seen in cells or lysates may run through a third protein. Some entries that bind do so weakly or less than the wild type. For part of these data: Sequences can lack the tags named with a protein.

The chains behind the UniProt entries cited, without tags or fusion partners.
UniProt Q15717, whole entry: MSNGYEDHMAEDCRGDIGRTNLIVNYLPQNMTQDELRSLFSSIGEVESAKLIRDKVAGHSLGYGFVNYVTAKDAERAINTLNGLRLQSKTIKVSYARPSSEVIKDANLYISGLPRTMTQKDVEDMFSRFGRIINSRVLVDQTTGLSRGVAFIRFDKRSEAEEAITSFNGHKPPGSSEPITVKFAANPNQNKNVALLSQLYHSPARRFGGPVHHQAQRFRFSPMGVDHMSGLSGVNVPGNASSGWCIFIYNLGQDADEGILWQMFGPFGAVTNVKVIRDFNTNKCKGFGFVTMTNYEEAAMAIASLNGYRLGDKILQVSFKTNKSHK

T1: hnRNPM-GFP (heterogeneous nuclear ribonucleoprotein M, C-terminally GFP-tagged) (UniProt P52272)
T1 sequence: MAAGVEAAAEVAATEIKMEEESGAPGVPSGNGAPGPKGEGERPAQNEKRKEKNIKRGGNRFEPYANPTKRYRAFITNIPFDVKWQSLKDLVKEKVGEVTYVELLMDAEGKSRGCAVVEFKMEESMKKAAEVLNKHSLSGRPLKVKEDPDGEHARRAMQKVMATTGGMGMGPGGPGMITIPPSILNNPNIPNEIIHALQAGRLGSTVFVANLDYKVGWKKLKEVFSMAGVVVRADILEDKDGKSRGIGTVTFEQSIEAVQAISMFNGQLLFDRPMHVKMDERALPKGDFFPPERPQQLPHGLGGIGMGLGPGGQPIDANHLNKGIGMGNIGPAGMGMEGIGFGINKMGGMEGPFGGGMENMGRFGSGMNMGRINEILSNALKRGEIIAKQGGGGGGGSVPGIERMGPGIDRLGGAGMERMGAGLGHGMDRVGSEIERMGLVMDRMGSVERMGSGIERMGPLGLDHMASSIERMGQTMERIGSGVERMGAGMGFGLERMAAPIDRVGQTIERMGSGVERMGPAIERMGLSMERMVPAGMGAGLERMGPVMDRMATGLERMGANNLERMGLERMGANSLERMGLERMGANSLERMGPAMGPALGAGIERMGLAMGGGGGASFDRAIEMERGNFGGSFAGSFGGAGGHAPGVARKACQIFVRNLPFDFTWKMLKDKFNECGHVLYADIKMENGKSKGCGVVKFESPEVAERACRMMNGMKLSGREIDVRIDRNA

T2: hnRNPM-GFP (heterogeneous nuclear ribonucleoprotein M, C-terminally GFP-tagged), P52272
T2 chain: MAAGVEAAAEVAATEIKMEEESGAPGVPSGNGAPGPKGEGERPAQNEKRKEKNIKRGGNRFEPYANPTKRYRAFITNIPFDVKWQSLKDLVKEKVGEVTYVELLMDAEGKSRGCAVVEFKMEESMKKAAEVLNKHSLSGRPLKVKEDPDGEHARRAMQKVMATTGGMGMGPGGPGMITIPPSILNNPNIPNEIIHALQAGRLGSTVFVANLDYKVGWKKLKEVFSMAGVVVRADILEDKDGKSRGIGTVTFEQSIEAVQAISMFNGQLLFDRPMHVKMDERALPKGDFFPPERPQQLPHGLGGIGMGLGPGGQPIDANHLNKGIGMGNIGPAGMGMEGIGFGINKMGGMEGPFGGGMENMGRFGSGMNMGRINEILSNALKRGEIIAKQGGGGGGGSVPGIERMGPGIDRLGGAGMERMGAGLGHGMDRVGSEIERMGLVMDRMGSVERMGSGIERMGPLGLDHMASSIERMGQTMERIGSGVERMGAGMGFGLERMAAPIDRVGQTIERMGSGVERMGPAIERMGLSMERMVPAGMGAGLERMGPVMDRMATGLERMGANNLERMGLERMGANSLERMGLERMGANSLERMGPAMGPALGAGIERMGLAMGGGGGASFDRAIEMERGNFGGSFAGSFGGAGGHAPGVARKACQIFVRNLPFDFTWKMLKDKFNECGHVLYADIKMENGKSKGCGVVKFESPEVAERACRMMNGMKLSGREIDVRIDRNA


Tests used:
Assay in all cases: co-IP
[1] = target: ELAVL1-FLAG (UniProt Q15717)
[2] = target: T1, hnRNPM-GFP (heterogeneous nuclear ribonucleoprotein M, C-terminally GFP-tagged)
[3] = target: T2, hnRNPM-GFP (heterogeneous nuclear …); conditions: remark: other sources report otherwise

binding [2] | Binder | other results
 | hnRNPM, endogenous in HEK293FT (protein, UniProt P52272 1-730) MAAGVEAAAEVAATEIKMEEESGAPGVPSGNGAPGPKGEGERPAQNEKRKEKNIKRGGNRFEPYANPTKRYRAFITNIPFDVKWQSLKDLVKEKVGEVTYVELLMDAEGKSRGCAVVEFKMEESMKKAAEVLNKHSLSGRPLKVKEDPDGEHARRAMQKVMATTGGMGMGPGGPGMITIPPSILNNPNIPNEIIHALQAGRLGSTVFVANLDYKVGWKKLKEVFSMAGVVVRADILEDKDGKSRGIGTVTFEQSIEAVQAISMFNGQLLFDRPMHVKMDERALPKGDFFPPERPQQLPHGLGGIGMGLGPGGQPIDANHLNKGIGMGNIGPAGMGMEGIGFGINKMGGMEGPFGGGMENMGRFGSGMNMGRINEILSNALKRGEIIAKQGGGGGGGSVPGIERMGPGIDRLGGAGMERMGAGLGHGMDRVGSEIERMGLVMDRMGSVERMGSGIERMGPLGLDHMASSIERMGQTMERIGSGVERMGAGMGFGLERMAAPIDRVGQTIERMGSGVERMGPAIERMGLSMERMVPAGMGAGLERMGPVMDRMATGLERMGANNLERMGLERMGANSLERMGLERMGANSLERMGPAMGPALGAGIERMGLAMGGGGGASFDRAIEMERGNFGGSFAGSFGGAGGHAPGVARKACQIFVRNLPFDFTWKMLKDKFNECGHVLYADIKMENGKSKGCGVVKFESPEVAERACRMMNGMKLSGREIDVRIDRNA | binding [1]: binds
binds | IKKβ (printed as IKKý; IKBKB), endogenous in THP-1 (protein, UniProt O14920 1-756) MSWSPSLTTQTCGAWEMKERLGTGGFGNVIRWHNQETGEQIAIKQCRQELSPRNRERWCLEIQIMRRLTHPNVVAARDVPEGMQNLAPNDLPLLAMEYCQGGDLRKYLNQFENCCGLREGAILTLLSDIASALRYLHENRIIHRDLKPENIVLQQGEQRLIHKIIDLGYAKELDQGSLCTSFVGTLQYLAPELLEQQKYTVTVDYWSFGTLAFECITGFRPFLPNWQPVQWHSKVRQKSEVDIVVSEDLNGTVKFSSSLPYPNNLNSVLAERLEKWLQLMLMWHPRQRGTDPTYGPNGCFKALDDILNLKLVHILNMVTGTIHTYPVTEDESLQSLKARIQQDTGIPEEDQELLQEAGLALIPDKPATQCISDGKLNEGHTLDMDLVFLFDNSKITYETQISPRPQPESVSCILQEPKRNLAFFQLRKVWGQVWHSIQTLKEDCNRLQQGQRAAMMNLLRNNSCLSKMKNSMASMSQQLKAKLDFFKTSIQIDLEKYSEQTEFGITSDKLLLAWREMEQAVELCGRENEVKLLVERMMALQTDIVDLQRSPMGRKQGGTLDDLEEQARELYRRLREKPRDQRTEGDSQEMVRLLLQAIQSFEKKVRVIYTQLSKTVVCKQKALELLPKVEEVVSLMNEDEKTVVRLQEKRQKELWNLLKIACSKVRGPVSGSPDSMNASRLSQPGQLMSQPSTASNSLPEPAKKSEELVAEAHNLCTLLENAIQDTVREQDQSFTALDWSWLQTEEEEHSCLEQAS | 
binds | IKKε, endogenous in THP-1 (protein, UniProt Q14164 1-716) MQSTANYLWHTDDLLGQGATASVYKARNKKSGELVAVKVFNTTSYLRPREVQVREFEVLRKLNHQNIVKLFAVEETGGSRQKVLVMEYCSSGSLLSVLESPENAFGLPEDEFLVVLRCVVAGMNHLRENGIVHRDIKPGNIMRLVGEEGQSIYKLTDFGAARELDDDEKFVSVYGTEEYLHPDMYERAVLRKPQQKAFGVTVDLWSIGVTLYHAATGSLPFIPFGGPRRNKEIMYRITTEKPAGAIAGAQRRENGPLEWSYTLPITCQLSLGLQSQLVPILANILEVEQAKCWGFDQFFAETSDILQRVVVHVFSLSQAVLHHIYIHAHNTIAIFQEAVHKQTSVAPRHQEYLFEGHLCVLEPSVSAQHIAHTTASSPLTLFSTAIPKGLAFRDPALDVPKFVPKVDLQADYNTAKGVLGAGYQALRLARALLDGQELMFRGLHWVMEVLQATCRRTLEVARTSLLYLSSSLGTERFSSVAGTPEIQELKAAAELRSRLRTLAEVLSRCSQNITETQESLSSLNRELVKSRDQVHEDRSIQQIQCCLDKMNFIYKQFKKSRMRPGLGYNEEQIHKLDKVNFSHLAKRLLQVFQEECVQKYQASLVTHGKRMRVVHETRNHLRLVGCSVAACNTEAQGVQESLSKLLEELSHQLLQDRAKGAQASPPPIAPYPSPTRKDLLLHMQELCEGMKLLASDLLDNNRIIERLNRVPAPPDV | 
no binding | IRF3 phosphorylated at Ser396 (pIRF3-Ser396), endogenous in THP-1 (protein, UniProt Q14653 1-427, phosphoserine at 396) MGTPKPRILPWLVSQLDLGQLEGVAWVNKSRTRFRIPWKHGLRQDAQQEDFGIFQAWAEATGAYVPGRDKPDLPTWKRNFRSALNRKEGLRLAEDRSKDPHDPHKIYEFVNSGVGDFSQPDTSPDTNGGGSTSDTQEDILDELLGNMVLAPLPDPGPPSLAVAPEPCPQPLRSPSLDNPTPFPNLGPSENPLKRLLVPGEEWEFEVTAFYRGRQVFQQTISCPEGLRLVGSEVGDRTLPGWPVTLPDPGMSLTDRGVMSYVRHVLSCLGGGLALWRAGQWLWAQRLGHCHTYWAVSEELLPNSGHGPDGEVPKDKEGGVFDLGPFIVDLITFTEGSGRSPRYALWFCVGESWPQDQPWTKRLVMVKVVPTCLRALVEMARVGGASSLENTVDLHISNSHPLSLTSDQYKAYLQDLVEGMDFQGPGES | 
no binding | Interferon regulatory factor 3 (IRF3), endogenous in THP-1 (protein, UniProt Q14653 1-427) MGTPKPRILPWLVSQLDLGQLEGVAWVNKSRTRFRIPWKHGLRQDAQQEDFGIFQAWAEATGAYVPGRDKPDLPTWKRNFRSALNRKEGLRLAEDRSKDPHDPHKIYEFVNSGVGDFSQPDTSPDTNGGGSTSDTQEDILDELLGNMVLAPLPDPGPPSLAVAPEPCPQPLRSPSLDNPTPFPNLGPSENPLKRLLVPGEEWEFEVTAFYRGRQVFQQTISCPEGLRLVGSEVGDRTLPGWPVTLPDPGMSLTDRGVMSYVRHVLSCLGGGLALWRAGQWLWAQRLGHCHTYWAVSEELLPNSGHGPDGEVPKDKEGGVFDLGPFIVDLITFTEGSGRSPRYALWFCVGESWPQDQPWTKRLVMVKVVPTCLRALVEMARVGGASSLENTVDLHISNSHPLSLTSDQYKAYLQDLVEGMDFQGPGES | 
 | TANK-binding kinase 1 (TBK1), endogenous in THP-1, Q9UHD2 1-729 (protein) MQSTSNHLWLLSDILGQGATANVFRGRHKKTGDLFAIKVFNNISFLRPVDVQMREFEVLKKLNHKNIVKLFAIEEETTTRHKVLIMEFCPCGSLYTVLEEPSNAYGLPESEFLIVLRDVVGGMNHLRENGIVHRDIKPGNIMRVIGEDGQSVYKLTDFGAARELEDDEQFVSLYGTEEYLHPDMYERAVLRKDHQKKYGATVDLWSIGVTFYHAATGSLPFRPFEGPRRNKEVMYKIITGKPSGAISGVQKAENGPIDWSGDMPVSCSLSRGLQVLLTPVLANILEADQEKCWGFDQFFAETSDILHRMVIHVFSLQQMTAHKIYIHSYNTATIFHELVYKQTKIISSNQELIYEGRRLVLEPGRLAQHFPKTTEENPIFVVSREPLNTIGLIYEKISLPKVHPRYDLDGDASMAKAITGVVCYACRIASTLLLYQELMRKGIRWLIELIKDDYNETVHKKTEVVITLDFCIRNIEKTVKVYEKLMKINLEAAELGEISDIHTKLLRLSSSQGTIETSLQDIDSRLSPGGSLADAWAHQEGTHPKDRNVEKLQVLLNCMTEIYYQFKKDKAERRLAYNEEQIHKFDKQKLYYHATKAMTHFTDECVKKYEAFLNKSEEWIRKMLHLRKQLLSLTNQCFDIEEEVSKYQEYTNELQETLPQKMFTASSGIKHTMTPIYPSSNTLVEMTLGMKKLKEEMEGVVKELAENNHILERFGSLTMDGGLRNVDCL | binding [3]: binds
